These are yes or no findings as the source states them, for the method shown. Binding seen in cells or lysates may run through a third protein. Some entries that bind do so weakly or less than the wild type.

The chains behind the UniProt entries cited, without tags or fusion partners.
UniProt P46937: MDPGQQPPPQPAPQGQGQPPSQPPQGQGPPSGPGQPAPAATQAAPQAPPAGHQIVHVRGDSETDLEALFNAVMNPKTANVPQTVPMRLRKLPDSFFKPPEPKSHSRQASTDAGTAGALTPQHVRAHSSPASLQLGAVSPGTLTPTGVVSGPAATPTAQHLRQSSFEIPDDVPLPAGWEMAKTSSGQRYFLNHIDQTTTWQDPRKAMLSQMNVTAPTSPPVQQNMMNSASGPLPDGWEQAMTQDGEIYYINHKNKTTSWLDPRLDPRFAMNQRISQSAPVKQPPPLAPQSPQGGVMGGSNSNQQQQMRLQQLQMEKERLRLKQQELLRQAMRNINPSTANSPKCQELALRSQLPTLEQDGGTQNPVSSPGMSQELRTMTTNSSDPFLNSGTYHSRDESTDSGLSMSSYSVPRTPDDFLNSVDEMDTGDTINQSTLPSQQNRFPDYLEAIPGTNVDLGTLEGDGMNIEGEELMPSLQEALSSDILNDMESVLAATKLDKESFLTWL
UniProt Q15561: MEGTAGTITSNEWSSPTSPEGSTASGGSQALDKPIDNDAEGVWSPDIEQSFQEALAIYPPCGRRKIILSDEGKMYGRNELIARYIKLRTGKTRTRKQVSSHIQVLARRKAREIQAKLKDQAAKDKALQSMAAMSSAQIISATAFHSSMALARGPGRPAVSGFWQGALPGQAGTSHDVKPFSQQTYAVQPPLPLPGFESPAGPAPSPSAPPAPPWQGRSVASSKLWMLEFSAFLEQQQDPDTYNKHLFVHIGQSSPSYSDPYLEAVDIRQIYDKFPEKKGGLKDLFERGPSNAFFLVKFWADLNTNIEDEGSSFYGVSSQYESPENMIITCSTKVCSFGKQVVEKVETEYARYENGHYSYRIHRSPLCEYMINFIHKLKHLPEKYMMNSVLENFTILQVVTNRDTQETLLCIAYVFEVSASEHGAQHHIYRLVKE
UniProt Q13887: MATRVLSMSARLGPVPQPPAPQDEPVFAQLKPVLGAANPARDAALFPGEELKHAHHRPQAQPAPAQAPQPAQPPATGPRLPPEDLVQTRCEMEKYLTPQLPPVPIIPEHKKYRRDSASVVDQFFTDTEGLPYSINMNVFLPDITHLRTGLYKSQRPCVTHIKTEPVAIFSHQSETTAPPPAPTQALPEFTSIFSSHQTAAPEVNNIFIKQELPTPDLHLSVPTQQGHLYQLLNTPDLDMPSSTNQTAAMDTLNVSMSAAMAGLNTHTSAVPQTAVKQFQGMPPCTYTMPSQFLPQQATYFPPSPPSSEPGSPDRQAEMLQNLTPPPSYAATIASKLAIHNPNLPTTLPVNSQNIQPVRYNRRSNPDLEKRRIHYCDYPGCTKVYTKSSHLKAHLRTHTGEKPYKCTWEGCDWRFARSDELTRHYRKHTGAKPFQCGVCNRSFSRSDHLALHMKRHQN

For assay [1], the target named is exogenous YAP1 in 293T cells (human) (UniProt P46937). Kind of assay: co-IP; exogenous YAP1 and KLF5 in 293T cells with Ctrl or CA-SRC plasmids; Flag/Myc-IP and western blot. Background: In western blotting, separated proteins are transferred to a membrane and probed.
Another assay has as its target Myc-TEAD4 (UniProt Q15561). The experiment in a line: co-IP; 293T cells transfected with fixed amounts of Myc-TEAD4 and Flag-YAP1 and increasing amounts of HA-KLF5; co-IP and western blot.
For assay [2], the target named is 3xFlag-WT-YAP1 (isoform with 504aa) (human) (UniProt P46937). Kind of assay: co-IP; Flag-IP (Anti-Flag M2 magnetic beads) and western blot from CA-SRC cells stably expressing Ctrl, Flag-WT or mut-YAP1.
The target in assay [3] is YAP1, endogenous (human (endogenous in MCF10A, CAL51, MDA-MB-231)) (UniProt P46937). Kind of assay: co-IP; YAP1 and KLF5 antibody reciprocal co-IP with protein A/G magnetic beads, overnight at 4 °C; lysates of CAL51 and MDA-MB-231 cells stably expressing Ctrl or CA-SRC; 50 mM Tris-HCl pH 7.5, 100 mM NaCl, 1% Triton X-100.
Assay [4] shares this target. Kind of assay: proximity ligation; Duolink In Situ Orange Starter Kit Mouse/Rabbit, in CA-SRC MCF10A cells; YAP1 or KLF5 antibody alone as negative control.

For the substance “exogenous KLF5 in 293T cells (from UniProt Q13887 1-457)”, the binding result in assay [1] is listed as “binds”.

For HA-KLF5 (from UniProt Q13887 1-457), in the assay with Myc-TEAD4, the binding result is given as “binds”.

With “Kruppel-like factor 5 (KLF5), endogenous (from UniProt Q13887 1-457)”, the binding result in assay [2], in assay [3] and in assay [4] was “binds” each time.

Source of the values: PMC9837006.
